Drawing on paper PMC4258286, this text covers binding for 2 substances.

By UniProt entry, the sequences of proteins in these tests, tags left out. Residues count along the entry.
UniProt Q9CQ22: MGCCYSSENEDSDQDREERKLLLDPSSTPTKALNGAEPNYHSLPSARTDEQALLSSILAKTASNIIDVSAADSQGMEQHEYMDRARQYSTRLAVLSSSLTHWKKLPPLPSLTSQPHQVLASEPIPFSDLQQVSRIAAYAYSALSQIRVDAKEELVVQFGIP
UniProt Q80ZV0, residues 111-308: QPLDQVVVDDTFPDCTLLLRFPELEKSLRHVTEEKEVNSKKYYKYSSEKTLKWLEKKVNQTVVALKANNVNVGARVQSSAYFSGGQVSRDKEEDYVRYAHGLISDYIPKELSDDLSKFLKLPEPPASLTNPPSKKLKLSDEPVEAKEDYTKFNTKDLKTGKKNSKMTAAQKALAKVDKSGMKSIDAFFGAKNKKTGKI

No constants are given. Whether binding was seen depends on the method and setting. Some binding calls cover weakened binding; strength is not graded here.

In the test the target is integrin-like A domain of Toxoplasma gondii micronemal protein MIC2 (residues 74-270), GAL4 DNA-binding domain fusion from pGBKT7-A/I (Toxoplasma gondii (RH strain)) (UniProt O00816). Briefly: two-hybrid; Matchmaker Gold system: Y2HGold with bait pGBKT7-A/I mated with Y187 carrying the mouse cDNA library (24 h, 30°C), selection on DDO/X/A then QDO/X/A; each prey plasmid retested by co-transformation with the bait into Y2HGold on QDO/X/A, blue colonies positive.

In the case of “late endosomal/lysosomal adaptor, MAPK and mTOR activator 1 (LAMTOR1), mouse, prey from the cDNA library (from UniProt Q9CQ22 1-161)”, the binding entry is “binds”.

On to “ribonuclease H2 subunit B (RNaseH2B), mouse, C-terminus (residues 111-308), prey from the cDNA library (from UniProt Q80ZV0 111-308) (domain or fragment)”, for which the binding entry is recorded as “binds”.
